Source: the supplement of paper PMC6411743
± gives the standard deviation of the averaged measurements. The list shows a part of the results, in another mix than the full data.

Amino acid sequences for entries named in this document (tags omitted). A change or cut given only in a name is not applied to a line headed by its entry.
UniProt Q9Y371: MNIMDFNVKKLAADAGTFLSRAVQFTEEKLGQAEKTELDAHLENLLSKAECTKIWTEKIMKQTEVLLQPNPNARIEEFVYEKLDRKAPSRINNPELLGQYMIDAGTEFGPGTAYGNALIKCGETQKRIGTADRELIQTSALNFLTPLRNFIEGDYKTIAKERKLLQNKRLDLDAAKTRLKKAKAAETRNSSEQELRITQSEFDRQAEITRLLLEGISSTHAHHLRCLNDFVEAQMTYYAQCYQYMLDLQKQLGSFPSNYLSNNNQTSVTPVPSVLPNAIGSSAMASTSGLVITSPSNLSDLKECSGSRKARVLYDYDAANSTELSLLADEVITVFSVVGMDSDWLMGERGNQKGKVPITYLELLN
UniProt Q8NB49: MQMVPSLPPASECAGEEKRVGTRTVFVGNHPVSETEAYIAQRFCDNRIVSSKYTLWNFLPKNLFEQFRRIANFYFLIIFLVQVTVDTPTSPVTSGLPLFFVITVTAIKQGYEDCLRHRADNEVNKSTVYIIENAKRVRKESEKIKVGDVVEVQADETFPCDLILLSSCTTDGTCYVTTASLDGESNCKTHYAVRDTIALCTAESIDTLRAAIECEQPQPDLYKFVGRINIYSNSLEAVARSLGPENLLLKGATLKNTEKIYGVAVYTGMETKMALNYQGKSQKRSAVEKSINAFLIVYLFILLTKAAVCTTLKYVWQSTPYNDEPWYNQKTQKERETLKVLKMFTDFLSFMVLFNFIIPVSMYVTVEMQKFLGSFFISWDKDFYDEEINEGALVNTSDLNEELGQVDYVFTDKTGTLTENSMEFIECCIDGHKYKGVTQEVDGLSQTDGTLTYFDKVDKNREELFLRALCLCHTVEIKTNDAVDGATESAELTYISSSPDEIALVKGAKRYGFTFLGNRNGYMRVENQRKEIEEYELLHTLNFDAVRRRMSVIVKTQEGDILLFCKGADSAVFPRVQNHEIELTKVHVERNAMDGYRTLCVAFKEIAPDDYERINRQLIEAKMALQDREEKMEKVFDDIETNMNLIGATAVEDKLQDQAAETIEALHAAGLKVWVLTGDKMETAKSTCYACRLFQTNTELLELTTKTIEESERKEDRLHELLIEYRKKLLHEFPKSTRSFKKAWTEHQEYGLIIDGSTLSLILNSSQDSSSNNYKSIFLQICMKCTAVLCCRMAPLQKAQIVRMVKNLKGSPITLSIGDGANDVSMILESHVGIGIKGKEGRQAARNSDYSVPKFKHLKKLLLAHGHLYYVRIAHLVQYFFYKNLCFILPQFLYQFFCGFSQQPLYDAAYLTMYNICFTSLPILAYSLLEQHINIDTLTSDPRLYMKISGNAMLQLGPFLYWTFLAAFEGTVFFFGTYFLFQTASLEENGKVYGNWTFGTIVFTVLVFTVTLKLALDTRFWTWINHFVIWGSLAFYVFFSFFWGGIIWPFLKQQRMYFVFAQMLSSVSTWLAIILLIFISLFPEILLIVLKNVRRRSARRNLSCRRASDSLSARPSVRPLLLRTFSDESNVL
UniProt O14979: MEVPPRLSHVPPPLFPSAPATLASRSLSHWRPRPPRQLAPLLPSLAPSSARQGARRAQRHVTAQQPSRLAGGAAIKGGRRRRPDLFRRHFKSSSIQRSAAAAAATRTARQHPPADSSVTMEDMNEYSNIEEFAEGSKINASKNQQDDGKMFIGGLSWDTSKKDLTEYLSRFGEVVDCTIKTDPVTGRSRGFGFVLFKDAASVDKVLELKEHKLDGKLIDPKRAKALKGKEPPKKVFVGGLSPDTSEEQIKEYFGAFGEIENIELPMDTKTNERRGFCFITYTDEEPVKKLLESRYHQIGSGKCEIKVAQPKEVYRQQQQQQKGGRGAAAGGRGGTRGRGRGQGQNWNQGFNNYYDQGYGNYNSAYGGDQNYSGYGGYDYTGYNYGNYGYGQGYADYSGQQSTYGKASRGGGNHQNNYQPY
UniProt Q9UKL3: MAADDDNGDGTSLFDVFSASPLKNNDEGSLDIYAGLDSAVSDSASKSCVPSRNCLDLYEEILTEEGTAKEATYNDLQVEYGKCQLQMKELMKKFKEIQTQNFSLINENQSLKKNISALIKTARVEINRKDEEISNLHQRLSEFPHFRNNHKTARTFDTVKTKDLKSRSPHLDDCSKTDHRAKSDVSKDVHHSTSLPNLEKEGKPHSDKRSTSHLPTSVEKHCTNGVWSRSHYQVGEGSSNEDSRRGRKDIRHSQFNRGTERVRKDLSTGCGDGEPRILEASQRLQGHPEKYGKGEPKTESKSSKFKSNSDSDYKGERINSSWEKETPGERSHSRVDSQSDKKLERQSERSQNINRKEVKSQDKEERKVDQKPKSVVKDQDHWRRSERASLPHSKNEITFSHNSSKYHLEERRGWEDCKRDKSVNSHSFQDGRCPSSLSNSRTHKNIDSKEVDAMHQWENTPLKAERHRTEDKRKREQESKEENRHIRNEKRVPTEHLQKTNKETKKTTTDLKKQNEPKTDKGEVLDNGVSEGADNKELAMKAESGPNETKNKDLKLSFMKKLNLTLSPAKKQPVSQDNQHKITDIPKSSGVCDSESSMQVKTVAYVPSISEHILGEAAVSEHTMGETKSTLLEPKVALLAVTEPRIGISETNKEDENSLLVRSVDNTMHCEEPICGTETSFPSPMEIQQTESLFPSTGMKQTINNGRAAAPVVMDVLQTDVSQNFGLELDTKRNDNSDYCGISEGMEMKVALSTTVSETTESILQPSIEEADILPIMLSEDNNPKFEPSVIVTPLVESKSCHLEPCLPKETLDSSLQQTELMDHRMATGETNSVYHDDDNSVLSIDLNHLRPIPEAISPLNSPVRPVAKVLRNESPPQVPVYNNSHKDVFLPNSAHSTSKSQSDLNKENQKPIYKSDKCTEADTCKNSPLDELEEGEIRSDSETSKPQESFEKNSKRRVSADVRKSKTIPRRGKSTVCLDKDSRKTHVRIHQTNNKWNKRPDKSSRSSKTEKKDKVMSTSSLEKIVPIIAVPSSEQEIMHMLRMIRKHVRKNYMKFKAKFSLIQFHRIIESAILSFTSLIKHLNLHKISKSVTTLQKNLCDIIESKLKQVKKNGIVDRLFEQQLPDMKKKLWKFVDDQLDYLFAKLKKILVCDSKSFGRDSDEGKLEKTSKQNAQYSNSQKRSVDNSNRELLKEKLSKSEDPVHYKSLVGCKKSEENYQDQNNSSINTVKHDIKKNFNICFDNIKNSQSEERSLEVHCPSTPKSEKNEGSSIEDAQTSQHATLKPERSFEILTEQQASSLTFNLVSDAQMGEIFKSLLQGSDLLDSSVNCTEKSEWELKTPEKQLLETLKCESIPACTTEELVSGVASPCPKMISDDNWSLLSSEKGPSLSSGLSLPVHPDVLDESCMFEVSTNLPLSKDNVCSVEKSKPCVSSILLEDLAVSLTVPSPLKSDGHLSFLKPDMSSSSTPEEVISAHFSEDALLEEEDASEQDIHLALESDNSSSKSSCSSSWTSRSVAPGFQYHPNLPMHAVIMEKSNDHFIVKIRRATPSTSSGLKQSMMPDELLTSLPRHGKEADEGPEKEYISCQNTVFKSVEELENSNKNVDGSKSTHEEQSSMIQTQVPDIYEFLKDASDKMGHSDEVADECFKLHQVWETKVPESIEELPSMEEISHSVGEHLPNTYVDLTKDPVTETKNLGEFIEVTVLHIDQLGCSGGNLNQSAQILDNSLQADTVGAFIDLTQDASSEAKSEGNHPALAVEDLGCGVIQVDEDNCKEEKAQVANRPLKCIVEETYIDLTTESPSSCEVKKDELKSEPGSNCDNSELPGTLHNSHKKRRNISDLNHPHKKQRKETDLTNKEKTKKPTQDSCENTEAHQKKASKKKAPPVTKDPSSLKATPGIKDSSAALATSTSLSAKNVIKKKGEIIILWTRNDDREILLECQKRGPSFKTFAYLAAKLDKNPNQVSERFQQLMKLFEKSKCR
UniProt P35227: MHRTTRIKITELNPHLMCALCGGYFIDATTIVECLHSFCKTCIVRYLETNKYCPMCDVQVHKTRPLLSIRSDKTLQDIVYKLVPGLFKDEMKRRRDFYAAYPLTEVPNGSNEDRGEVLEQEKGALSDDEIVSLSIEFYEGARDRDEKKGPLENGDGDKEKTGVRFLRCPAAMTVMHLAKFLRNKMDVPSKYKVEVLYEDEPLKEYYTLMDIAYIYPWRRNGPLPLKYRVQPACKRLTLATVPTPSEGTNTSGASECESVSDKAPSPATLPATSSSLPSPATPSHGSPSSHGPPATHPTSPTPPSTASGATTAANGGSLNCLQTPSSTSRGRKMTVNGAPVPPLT
UniProt Q9Y3E1: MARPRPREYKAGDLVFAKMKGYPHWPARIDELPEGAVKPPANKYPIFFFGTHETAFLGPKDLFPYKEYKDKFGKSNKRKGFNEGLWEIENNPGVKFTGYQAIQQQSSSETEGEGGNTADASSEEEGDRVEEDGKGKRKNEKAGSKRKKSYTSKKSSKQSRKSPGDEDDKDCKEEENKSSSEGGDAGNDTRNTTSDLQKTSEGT
UniProt Q0VDG4: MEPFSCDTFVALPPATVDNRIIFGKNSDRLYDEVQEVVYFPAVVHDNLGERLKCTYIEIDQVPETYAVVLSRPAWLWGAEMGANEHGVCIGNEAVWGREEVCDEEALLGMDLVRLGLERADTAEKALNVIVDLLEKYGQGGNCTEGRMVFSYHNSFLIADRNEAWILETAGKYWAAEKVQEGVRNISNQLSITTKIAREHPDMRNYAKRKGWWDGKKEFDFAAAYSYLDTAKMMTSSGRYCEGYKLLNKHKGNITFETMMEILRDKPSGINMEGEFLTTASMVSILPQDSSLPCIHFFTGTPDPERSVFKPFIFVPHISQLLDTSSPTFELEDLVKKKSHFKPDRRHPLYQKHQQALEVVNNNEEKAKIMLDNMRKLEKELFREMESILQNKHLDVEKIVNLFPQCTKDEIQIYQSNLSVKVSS
UniProt Q9C0C7: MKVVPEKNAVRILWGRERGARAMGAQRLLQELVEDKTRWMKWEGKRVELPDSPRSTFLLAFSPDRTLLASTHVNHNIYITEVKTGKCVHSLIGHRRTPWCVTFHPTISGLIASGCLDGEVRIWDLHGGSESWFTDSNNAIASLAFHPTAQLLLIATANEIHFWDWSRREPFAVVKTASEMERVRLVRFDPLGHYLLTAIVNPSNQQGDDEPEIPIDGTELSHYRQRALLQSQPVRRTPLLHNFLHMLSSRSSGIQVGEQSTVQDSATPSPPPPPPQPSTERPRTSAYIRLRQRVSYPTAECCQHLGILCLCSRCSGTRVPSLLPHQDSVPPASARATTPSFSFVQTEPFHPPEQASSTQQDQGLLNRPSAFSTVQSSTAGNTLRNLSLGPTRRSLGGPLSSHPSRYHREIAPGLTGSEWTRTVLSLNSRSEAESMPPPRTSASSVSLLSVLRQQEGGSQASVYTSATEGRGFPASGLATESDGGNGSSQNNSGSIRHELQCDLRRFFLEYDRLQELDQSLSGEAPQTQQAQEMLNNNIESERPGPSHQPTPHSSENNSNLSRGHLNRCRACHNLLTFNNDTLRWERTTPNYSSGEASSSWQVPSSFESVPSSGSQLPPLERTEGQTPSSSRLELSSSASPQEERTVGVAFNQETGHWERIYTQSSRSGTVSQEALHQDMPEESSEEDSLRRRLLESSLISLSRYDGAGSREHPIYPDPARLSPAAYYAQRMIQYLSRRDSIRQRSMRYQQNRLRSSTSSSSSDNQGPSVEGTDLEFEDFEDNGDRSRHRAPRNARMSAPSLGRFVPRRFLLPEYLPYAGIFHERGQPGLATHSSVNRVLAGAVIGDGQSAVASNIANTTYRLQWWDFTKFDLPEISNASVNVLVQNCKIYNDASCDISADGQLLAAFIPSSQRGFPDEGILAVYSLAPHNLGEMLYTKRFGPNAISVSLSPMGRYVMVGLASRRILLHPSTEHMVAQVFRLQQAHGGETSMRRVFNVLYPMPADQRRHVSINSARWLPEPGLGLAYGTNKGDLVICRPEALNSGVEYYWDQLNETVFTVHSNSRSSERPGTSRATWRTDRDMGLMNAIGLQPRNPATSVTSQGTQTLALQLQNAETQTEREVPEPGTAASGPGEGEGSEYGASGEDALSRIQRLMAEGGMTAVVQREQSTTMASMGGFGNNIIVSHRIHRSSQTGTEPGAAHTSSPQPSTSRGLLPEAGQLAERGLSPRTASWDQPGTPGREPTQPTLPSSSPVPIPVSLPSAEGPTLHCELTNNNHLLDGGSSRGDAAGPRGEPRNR
UniProt O75503: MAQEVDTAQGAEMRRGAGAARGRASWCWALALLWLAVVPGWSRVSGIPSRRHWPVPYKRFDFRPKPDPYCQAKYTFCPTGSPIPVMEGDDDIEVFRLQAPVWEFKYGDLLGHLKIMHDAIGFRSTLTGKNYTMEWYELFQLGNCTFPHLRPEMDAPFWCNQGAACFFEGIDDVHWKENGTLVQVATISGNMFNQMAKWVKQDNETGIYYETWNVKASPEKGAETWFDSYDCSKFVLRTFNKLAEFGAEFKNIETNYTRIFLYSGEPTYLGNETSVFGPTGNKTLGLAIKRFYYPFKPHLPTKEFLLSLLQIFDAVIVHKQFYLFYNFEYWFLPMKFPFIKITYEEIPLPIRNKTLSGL

Compound: Nc1ncnc2c1ncn2[C@@H]1O[C@H](COP(=O)(O)OP(=O)(O)NP(=O)(O)O)[C@@H](O)[C@H]1O [adenylyl imidodiphosphate]
Assay: NP40-soluble protein abundance relative to vehicle (solubility fold change) (ratio); higher = more soluble protein in presence of AMP-PNP
How it was run: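 Eight concentrations, 0.1 to 10 mM, were tested on Jurkat crude lysate for 10 min at room temperature and then 3 min at 37 °C, in three independent experiments. The lysate was solubilised with 0.8% NP40 and benzonase, ultracentrifuged, and the supernatant TMT-labelled for LC-MS/MS. Each value is the fold change against the detergent-processed vehicle in its own replicate, from vsn-normalised intensities.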

Target	NP40-soluble protein abundance (concentration: 1mM)	NP40-soluble protein abundance (concentration: 2mM)	NP40-soluble protein abundance (concentration: 4mM)	NP40-soluble protein abundance (concentration: 6mM)	NP40-soluble protein abundance (concentration: 8mM)	NP40-soluble protein abundance (concentration: 10mM)
A0A087WW40|Q9Y371 and related entries (UniProt Q9Y371)	1.04 ± 0.043	1.04 ± 0.057	0.97 ± 0.026	0.9722 ± 0.0066	0.917 ± 0.017	0.933 ± 0.047
A0A024R4K9|A0A087WZA9|A0A087X266|Q9BXJ8 and related entries (UniProt Q9BXJ8)	0.961 ± 0.043	1.05 ± 0.14	0.972 ± 0.033	1.09 ± 0.1	1.05 ± 0.041	1.12 ± 0.091
A0A087WTT2|Q5JWB9 and related entries (UniProt Q96A57)	0.976 ± 0.038	1.01 ± 0.047	0.959 ± 0.062	0.999 ± 0.062	0.99 ± 0.043	0.983 ± 0.091
A0A067XG54|Q8NB49 and related entries (UniProt Q8NB49)	0.999 ± 0.028	0.942 ± 0.057	0.986 ± 0.028	0.965 ± 0.022	0.976 ± 0.012	0.941 ± 0.036
A0A087WUK2|O14979 and related entries (UniProt O14979)	1.01 ± 0.094	1.04 ± 0.037	0.984 ± 0.06	0.972 ± 0.092	0.944 ± 0.075	0.998 ± 0.075
A0A087WTM5|H7BYJ1 and related entries (UniProt Q969K3)	0.928 ± 0.091	0.914 ± 0.085	0.915 ± 0.071	0.914 ± 0.074	0.924 ± 0.071	0.926 ± 0.05
A0A087WW06|Q96AY4 (UniProt Q96AY4)	0.995 ± 0.017	1.01 ± 0.011	0.969 ± 0.011	1.005 ± 0.0099	0.97961 ± 0.00025	0.957 ± 0.03
A0A087WUQ6|P07203 (UniProt P07203)	1.02 ± 0.017	1.06 ± 0.029	1.031 ± 0.0073	0.997 ± 0.02	0.998 ± 0.025	0.996 ± 0.011
A0A087WTW5|Q9UKL3 (UniProt Q9UKL3)	1.02 ± 0.034	1.05 ± 0.015	1.03 ± 0.056	1.03 ± 0.047	1.023 ± 0.0063	1.01 ± 0.024
A0A024R4N9|Q9BSV6 and related entries (UniProt Q9BSV6)	0.99 ± 0.014	0.962 ± 0.031	0.9702 ± 0.0062	0.981 ± 0.047	0.938 ± 0.041	0.952 ± 0.048
A0A024R1V6|P35227 (UniProt P35227)	1.01 ± 0.017	1 ± 0.03	1.02 ± 0.0049	1.02 ± 0.011	1.05 ± 0.038	1.08 ± 0.048
A0A087WUW5|A0A0U1RRM4|A6NLN1 and related entries (UniProt P26599)	1.02 ± 0.032	1.06 ± 0.064	1.04 ± 0.035	1.03 ± 0.036	1.03 ± 0.024	1.06 ± 0.027
A0A024R216|Q9Y3E1 (UniProt Q9Y3E1)	1 ± 0.031	1.1 ± 0.17	1.05 ± 0.074	1.16 ± 0.074	1.11 ± 0.06	1.17 ± 0.14
A0A087WW14|Q0VDG4 and related entries (UniProt Q0VDG4)	0.958 ± 0.022	0.943 ± 0.026	0.972 ± 0.023	0.966 ± 0.021	0.978 ± 0.045	0.963 ± 0.026
A0A024RA52|P25787 (UniProt P25787)	0.944 ± 0.033	0.922 ± 0.035	0.868 ± 0.038	0.914 ± 0.062	0.893 ± 0.072	0.903 ± 0.11
A0A024R4E5|Q00341 (UniProt Q00341)	0.9949 ± 0.0089	0.973 ± 0.031	1.01 ± 0.013	1.006 ± 0.0057	1.01 ± 0.022	1.03 ± 0.014
A0A087WUC6|E9PI68 and related entries (UniProt Q15005)	1.01 ± 0.018	0.962 ± 0.012	1 ± 0.035	1.02 ± 0.058	1.02 ± 0.036	0.981 ± 0.058
A0A087WUB9|Q8WYA6 (UniProt Q8WYA6)	1.01 ± 0.014	1.01 ± 0.015	1.03 ± 0.035	1.07 ± 0.022	1.1 ± 0.048	1.15 ± 0.062
A0A087WTJ2|Q8WWP7 (UniProt Q8WWP7)	1.03 ± 0.017	0.999 ± 0.064	1.07 ± 0.025	1.07 ± 0.044	1.09 ± 0.062	1.06 ± 0.045

Target	NP40-soluble protein abundance (concentration: 1mM)	NP40-soluble protein abundance (concentration: 2mM)	NP40-soluble protein abundance (concentration: 4mM)	NP40-soluble protein abundance (concentration: 6mM)	NP40-soluble protein abundance (concentration: 8mM)	NP40-soluble protein abundance (concentration: 10mM)
A0A024R4M0|P46781 (UniProt P46781)	0.938 ± 0.019	0.821 ± 0.072	0.891 ± 0.1	0.855 ± 0.031	0.848 ± 0.084	0.874 ± 0.15
A0A024R4Q5|G5E9B5 and related entries (UniProt P0C1Z6)	0.969 ± 0.037	0.994 ± 0.077	0.993 ± 0.03	0.974 ± 0.043	0.999 ± 0.022	0.98 ± 0.039
A0A075B6F3|H0Y7V4 and related entries (UniProt Q96JB1)	0.9597 ± 0.0067	1.02 ± 0.035	0.919 ± 0.024	0.947 ± 0.059	0.865 ± 0.025	0.882 ± 0.012
A0A075B6T1|Q9C0C7 and related entries (UniProt Q9C0C7)	0.983 ± 0.026	0.976 ± 0.015	0.977 ± 0.014	0.954 ± 0.025	0.983 ± 0.028	0.962 ± 0.025
A0A087WUH0|P28715 (UniProt P28715)	1.05 ± 0.015	1.11 ± 0.065	1.095 ± 0.0082	1.06 ± 0.028	1.03 ± 0.022	1.063 ± 0.0046
A0A087WT12|A0A087X2I2|K7ERP4 and related entries (UniProt P36969)	0.954 ± 0.054	0.939 ± 0.05	1.02 ± 0.11	1.09 ± 0.16	1.12 ± 0.13	1.13 ± 0.14
A0A087WUM0 (UniProt P57105)	1.01 ± 0.032	0.986 ± 0.04	0.967 ± 0.029	0.962 ± 0.037	0.958 ± 0.028	0.959 ± 0.036
A0A075B6H4|Q9H8E8 (UniProt Q9H8E8)	1.01 ± 0.015	1.05 ± 0.04	1.03 ± 0.094	1.14 ± 0.084	1.11 ± 0.03	1.13 ± 0.14
A0A075B6F9|Q9Y314 (UniProt Q9Y314)	1.01 ± 0.036	1.02 ± 0.05	1.01 ± 0.017	1.02 ± 0.033	1.02 ± 0.032	1.04 ± 0.049
A0A087WUU9|P47974 (UniProt P47974)	0.999 ± 0.022	1.03 ± 0.063	0.9879 ± 0.0024	0.978 ± 0.018	0.982 ± 0.036	0.962 ± 0.023
A0A087WUL0|Q3LXA3 (UniProt Q3LXA3)	1.02 ± 0.024	1.05 ± 0.05	1.03 ± 0.054	0.997 ± 0.01	0.963 ± 0.027	1.02 ± 0.036
A0A087WU62|A0A087X2D5|A0A0G2JMS5|Q9BRJ2 (UniProt Q9BRJ2)	0.998 ± 0.11	0.971 ± 0.061	0.978 ± 0.091	0.951 ± 0.15	0.92 ± 0.095	0.933 ± 0.13
A0A087WVP1|Q14517 (UniProt Q14517)	0.993 ± 0.066	1.06 ± 0.019	1.03 ± 0.056	1 ± 0.096	0.959 ± 0.05	1.01 ± 0.076
A0A087WT44|P30519 and related entries (UniProt P30519)	1.031 ± 0.0061	1.05 ± 0.037	1.04 ± 0.041	0.9921 ± 0.0045	0.982 ± 0.023	0.979 ± 0.044
A0A087WVN1|Q5JPI9 (UniProt Q5JPI9)	0.994 ± 0.021	0.995 ± 0.021	1.11 ± 0.063	1.032 ± 0.0056	1.04 ± 0.014	1.01 ± 0.03
A0A075B746|P82921 (UniProt P82921)	1.009 ± 0.0094	0.976 ± 0.046	0.974 ± 0.043	0.975 ± 0.012	0.977 ± 0.043	0.968 ± 0.087
A0A024R644|O75503 (UniProt O75503)	1.01 ± 0.037	1.05 ± 0.11	1.05 ± 0.044	1.06 ± 0.044	1.09 ± 0.053	1.09 ± 0.062
A0A087WUI1|Q9Y388 (UniProt Q9Y388)	1.05 ± 0.044	0.997 ± 0.024	1.01 ± 0.022	1.09 ± 0.025	1.12 ± 0.033	1.13 ± 0.063

Two entries from above in a different format:
A0A087WUK2|O14979 and related entries (UniProt O14979)
  NP40-soluble protein abundance (concentration: 1mM): 1.01 ± 0.094
  NP40-soluble protein abundance (concentration: 2mM): 1.04 ± 0.037
  NP40-soluble protein abundance (concentration: 4mM): 0.984 ± 0.06
  NP40-soluble protein abundance (concentration: 6mM): 0.972 ± 0.092
  NP40-soluble protein abundance (concentration: 8mM): 0.944 ± 0.075
  NP40-soluble protein abundance (concentration: 10mM): 0.998 ± 0.075
A0A024R216|Q9Y3E1 (UniProt Q9Y3E1)
  NP40-soluble protein abundance (concentration: 1mM): 1 ± 0.031
  NP40-soluble protein abundance (concentration: 2mM): 1.1 ± 0.17
  NP40-soluble protein abundance (concentration: 4mM): 1.05 ± 0.074
  NP40-soluble protein abundance (concentration: 6mM): 1.16 ± 0.074
  NP40-soluble protein abundance (concentration: 8mM): 1.11 ± 0.06
  NP40-soluble protein abundance (concentration: 10mM): 1.17 ± 0.14
